Reference: patent US9113631B2, “1,3-diaryl-substituted heterocyclic pesticides” (E I DU PONT DE NEMOURS AND COMPANY, priority 2011, dated 2015)
Some of these results come from one statement about several compounds together. For at least one compound, name, drawing or mass did not settle the structure.

System: diamondback moth (Plutella xylostella)
Test: Test A: control of diamondback moth on radish plant, foliar spray
Type: in vivo
Conditions: neonate larvae on radish plant, 6 days, 25° C., visually assessed

Structure (SMILES) | control efficacy, very good to excellent: feeding damage (40% or less feeding damage and/or 100% mortality) (sprayed at 50 ppm) | control efficacy, very good to excellent: feeding damage (40% or less feeding damage and/or 100% mortality) (sprayed at 250 ppm)
N#CC1CCN(Cc2cn(-c3ccnc(Cl)c3)nc2-c2c(F)cc(F)cc2F)CC1 [Compound 887] | ≤ 40% | 
CCOC(=O)C1CCN(Cc2cn(-c3ccc(Cl)c(Cl)c3)nc2-c2ccc(F)cc2)CC1 [Compound 24] | ≤ 40% | ≤ 40%
COC(=O)C1CCN(Cc2cn(-c3ccccc3F)nc2-c2ccccc2F)CC1 [Compound 43] | ≤ 40% | ≤ 40%
O=CC1CCN(Cc2cn(-c3ccc(Cl)cc3)nc2-c2ccccc2F)CC1 [Compound 103] |  | ≤ 40%
COc1cc(F)ccc1-c1nn(-c2ccc(Cl)cc2)cc1CN1CCC(C#N)CC1 [Compound 856] | ≤ 40% | 
CCOC(=O)C1CCN(Cc2cn(-c3cccc(Cl)c3)nc2-c2cccc(F)c2)CC1 [Compound 20] |  | ≤ 40%
N#CC1(c2ccccc2)CCN(Cc2cn(-c3ccc(OC(F)(F)F)cc3)nc2-c2ccccc2F)CC1 [Compound 69] | ≤ 40% | ≤ 40%
CC(=O)N[C@H]1CCN(Cc2cn(-c3ccc(Br)cn3)nc2-c2ccc(F)cc2)C1 [Compound 898] | ≤ 40% | 
O=c1[nH]nc(C2CCN(Cc3cn(-c4ccc(Cl)cc4)nc3-c3ccccc3F)CC2)o1 [Compound 795] | ≤ 40% | 
CC(=O)NC1(C#N)CCN(Cc2cn(-c3ccc(OC(F)(F)F)cc3)nc2-c2ccc(F)cc2F)CC1 [Compound 648] | ≤ 40% | 
COC(=O)C1CCN(Cc2cn(-c3ccc(Cl)cc3)nc2-c2ccccc2)CC1 [Compound 772] | ≤ 40% | 
CCOC(=O)C1CCN(Cc2cn(-c3cccc(Cl)c3)nc2-c2ccc(F)cc2)CC1 [Compound 21] |  | ≤ 40%
COC(=O)C1CCN(Cc2cn(-c3ccc(C)c(Cl)c3)nc2-c2ccccc2F)CC1 [Compound 97] | ≤ 40% | 
N#CC1CCN(Cc2cn(-c3ccc(OCC(F)(F)F)cc3)nc2-c2ccccc2F)CC1 [Compound 877] | ≤ 40% | 
N#CC1CCN(Cc2cn(-c3ccccc3F)nc2-c2ccccc2F)CC1 [Compound 39] | ≤ 40% | ≤ 40%
CCOC(=O)C1CCCN(Cc2cn(-c3cccc(C(F)(F)F)c3)nc2-c2ccccc2F)C1 (stereo not drawn) [Compound 303] |  | ≤ 40%
CS(=O)(=O)N[C@H]1CCN(Cc2cn(-c3cccc(C(F)(F)F)c3)nc2-c2ccc(F)cc2)C1 [Compound 662] | ≤ 40% | 
CCOC(=O)C1CCCN(Cc2cn(-c3ccc(Br)cc3)nc2-c2ccccc2F)C1 (stereo not drawn) [Compound 301] | ≤ 40% | ≤ 40%
CC(=O)NC1(C(N)=O)CCN(Cc2cn(-c3ccc(OC(F)(F)F)cc3)nc2-c2ccc(F)cc2F)CC1 [Compound 649] | ≤ 40% | 
N#CC1(c2ccccc2)CCN(Cc2cn(-c3cccc(C(F)(F)F)c3)nc2-c2ccccc2F)CC1 [Compound 73] |  | ≤ 40%
CC(=O)C1CCN(Cc2cn(-c3ccc(Cl)c(Cl)c3)nc2-c2ccccc2F)CC1 [Compound 29] | ≤ 40% | ≤ 40%
OCC1CCN(Cc2cn(-c3ccc(Cl)cc3)nc2-c2ccccc2F)CC1 [Compound 510] | ≤ 40% | ≤ 40%
CC(=O)C1CCN(Cc2cn(-c3ccc(Cl)c(Cl)c3)nc2-c2ccc(F)cc2)CC1 [Compound 31] | ≤ 40% | ≤ 40%
N#CC1CCN(Cc2cn(-c3ccc(Cl)c(Cl)c3)nc2-c2cccs2)CC1 [Compound 520] | ≤ 40% | 
O=CN[C@@H]1CCN(Cc2cn(-c3cccc(C(F)(F)F)c3)nc2-c2ccc(F)cc2)C1 [Compound 665] | ≤ 40% | 
N#CC1CCN(Cc2cn(-c3ccc(Cl)c(Cl)c3)nc2-c2ccc(Cl)cn2)CC1 [Compound 516] | ≤ 40% | 
Cc1ccc(-n2cc(CN3CCC(C#N)CC3)c(-c3ccccc3F)n2)cc1Cl [Compound 96] | ≤ 40% | 

Structure (SMILES) | control efficacy, very good to excellent: feeding damage (40% or less feeding damage and/or 100% mortality) (sprayed at 50 ppm) | control efficacy, very good to excellent: feeding damage (40% or less feeding damage and/or 100% mortality) (sprayed at 250 ppm)
N#CC1CCN(Cc2cn(-c3ccc(Cl)c(Cl)c3)nc2-c2cccnc2)CC1 [Compound 98] | ≤ 40% | 
N#CC1CCN(Cc2cn(-c3ccc(C(F)(F)F)cn3)nc2-c2ccccc2F)CC1 [Compound 654] | ≤ 40% | 
CC(C)(C)OC(=O)N1CCCN(Cc2cn(-c3ccc(OC(F)(F)F)cc3)nc2-c2ccccc2F)CC1 [Compound 401] |  | ≤ 40%
N#CC1CCN(Cc2cn(-c3ccc(Cl)cc3)nc2-c2ccccn2)CC1 [Compound 812] | ≤ 40% | 
N#CC1(c2ccccc2)CCN(Cc2cn(-c3ccc(C(F)(F)F)cc3)nc2-c2ccccc2F)CC1 [Compound 58] | ≤ 40% | ≤ 40%
N#CN1CCN(Cc2cn(-c3ccc(F)c(Cl)c3)nc2-c2ccccc2F)CC1 [Compound 596] | ≤ 40% | 
CC(=O)NC1CCN(Cc2cn(-c3ccc(OC(F)(F)F)cc3)nc2-c2ccc(F)cc2F)CC1 [Compound 68] | ≤ 40% | ≤ 40%
O=c1[nH]nc(C2CCN(Cc3cn(-c4ccc(Cl)cc4)nc3-c3ccccc3)CC2)o1 [Compound 792] | ≤ 40% | 
Fc1ccccc1-c1nn(-c2ccc(OC(F)(F)F)cc2)cc1CN1CCN(c2ncccn2)CC1 [Compound 210] |  | ≤ 40%
COC(=O)C1CCN(Cc2cn(-c3ccc(Cl)c(Cl)c3)nc2-c2ccccc2C(F)(F)F)CC1 [Compound 116] | ≤ 40% | 
COC(=O)C1CCN(Cc2cn(-c3ccc(OC(F)(F)F)cc3)nc2-c2ccccc2F)CC1 [Compound 64] | ≤ 40% | ≤ 40%
CCOC(=O)NC1CCN(Cc2cn(-c3cccc(Cl)c3)nc2-c2ccccc2F)CC1 [Compound 26] | ≤ 40% | ≤ 40%
N#CC1CCN(Cc2cn(-c3ccc(Cl)cc3)nc2-c2ccccc2)CC1 [Compound 809] | ≤ 40% | 
COC(=O)C1CCN(Cc2cn(-c3ccc(Cl)c(Cl)c3)nc2-c2ccccc2F)C1 (stereo not drawn) [Compound 513] | ≤ 40% | 
Clc1ccc(-n2cc(CN3CCC(c4ncon4)CC3)c(-c3ccccn3)n2)cc1 [Compound 827] | ≤ 40% | 
CC(C)(C)OC(=O)NC1CCN(Cc2cn(-c3ccc(Cl)c(Cl)c3)nc2-c2ccccc2F)CC1 [Compound 511] | ≤ 40% | 
CCOC(=O)C1CCCN(Cc2cn(-c3ccc(F)c(F)c3)nc2-c2ccccc2F)C1 (stereo not drawn) [Compound 309] | ≤ 40% | 
CC(=O)C1CCN(Cc2cn(-c3ccc(Cl)c(Cl)c3)nc2-c2cccc(F)c2)CC1 [Compound 30] | ≤ 40% | ≤ 40%
CCOC(=O)N1CCN(Cc2cn(-c3cccc(Cl)c3)nc2-c2ccccc2F)CC1 [Compound 202] |  | ≤ 40%
Fc1ccccc1-c1nn(-c2ccc(Cl)cc2)cc1CN1CCC(c2nc[nH]n2)CC1 [Compound 831] | ≤ 40% | 
CC(=O)N[C@@H]1CCN(Cc2cn(-c3cccc(C(F)(F)F)c3)nc2-c2ccc(F)cc2)C1 [Compound 640] | ≤ 40% | 
Clc1ccc(-n2cc(CN3CCOCC3)c(-c3ccccn3)n2)cc1 [Compound 813] | ≤ 40% | 
Cc1ccc(-c2nn(-c3ccc(Cl)c(Cl)c3)cc2CN2CCC(C#N)CC2)s1 [Compound 519] | ≤ 40% | 
COCC1CCN(Cc2cn(-c3ccc(C)cc3)nc2-c2ccc(F)cc2)CC1 [Compound 7] |  | ≤ 40%
NC(=O)C1CCN(Cc2cn(-c3ccc(Cl)c(Cl)c3)nc2-c2ccccc2F)C1 (stereo not drawn) [Compound 515] | ≤ 40% | 
COC(=O)C1CCN(Cc2cn(-c3ccc(F)c(Cl)c3)nc2-c2ccccc2F)C1 (stereo not drawn) [Compound 403] |  | ≤ 40%
